{"source": "paper PMC6958441", "about": "“Role of the Metal Center in the Modulation of the Aggregation Process of Amyloid Model Systems by Square Planar Complexes Bearing 2-(2′-pyridyl)benzimidazole Ligands” (Pharmaceuticals, 2019)", "biological_target": "NPM1_(264–277), fragment corresponding to the 2nd helix (residues 264–277) of the C-terminal domain of nucleophosmin 1", "experiment": "ESI-MS; peptide alone in the presence of DTT (reducing conditions), Figure S3B; both purified", "note": "Results are given in words; binding and its absence hold for the method and conditions named."}
{"binder": "VEAKFINYVKNCFR (acetylated and amidated version)", "values": [{"measurement": "binding", "result": "no binding (condition: under reducing conditions (DTT))"}]}
